Laboratory results taken from article PMC10423259.
These are yes or no findings as the source states them, for the method shown. In cells and extracts the contact can be indirect. Some binding calls cover weakened binding; strength is not graded here.

By UniProt entry, the sequences of proteins in these tests, tags left out.
UniProt O43524: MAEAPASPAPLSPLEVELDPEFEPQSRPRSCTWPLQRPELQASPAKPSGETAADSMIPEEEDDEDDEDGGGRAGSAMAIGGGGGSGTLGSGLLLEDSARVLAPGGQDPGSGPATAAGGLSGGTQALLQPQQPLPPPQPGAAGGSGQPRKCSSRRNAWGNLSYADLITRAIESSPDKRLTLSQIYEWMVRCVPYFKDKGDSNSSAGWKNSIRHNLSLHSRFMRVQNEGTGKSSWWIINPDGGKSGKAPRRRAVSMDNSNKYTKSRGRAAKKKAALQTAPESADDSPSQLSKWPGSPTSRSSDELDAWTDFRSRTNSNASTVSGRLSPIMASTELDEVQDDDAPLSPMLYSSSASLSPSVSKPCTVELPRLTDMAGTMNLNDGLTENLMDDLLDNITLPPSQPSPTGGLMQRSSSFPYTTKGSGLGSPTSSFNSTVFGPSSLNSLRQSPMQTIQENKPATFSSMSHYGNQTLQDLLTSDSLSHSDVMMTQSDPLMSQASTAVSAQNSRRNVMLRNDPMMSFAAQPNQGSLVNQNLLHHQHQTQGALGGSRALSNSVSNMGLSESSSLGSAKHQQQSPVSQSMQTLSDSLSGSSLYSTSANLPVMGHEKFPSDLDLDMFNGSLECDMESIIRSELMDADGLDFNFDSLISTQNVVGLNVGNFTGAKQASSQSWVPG
UniProt Q9NYG5: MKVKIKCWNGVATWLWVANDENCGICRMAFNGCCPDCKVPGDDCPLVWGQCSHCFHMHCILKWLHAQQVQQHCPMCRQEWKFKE

Legend:
[1] = target: His-labeled FOXO3 (UniProt O43524); assay: co-IP; IP with anti-His or IgG from T24 and UM-UC-3 cells transfected with FOXO3-His or not; Protein A/G magnetic beads, 4 °C overnight; western blot
[2] = target: GST-ANAPC11 fusion protein (UniProt Q9NYG5); assay: pull-down; GST-ANAPC11 purified on glutathione Sepharose beads, incubated with T24 or UM-UC-3 cell lysates; eluted complexes detected by Coomassie blue staining and western blotting; only the target purified
[3] = target: ANAPC11 (human (endogenous in T24 and UM-UC-3)) (UniProt Q9NYG5); assay: co-IP; IP with anti-ANAPC11 antibody or IgG from T24 and UM-UC-3 lysates (endogenous proteins), Protein A/G magnetic beads, 4 °C overnight; western blot

ANAPC11 (from UniProt Q9NYG5 1-84)
binding [1]: binds

FOXO3 (from UniProt O43524 1-673)
binding [2]: binds | binding [3]: binds
